# PubChem BioAssay AID1053208 | Peter MacCallum Cancer Centre | 2014
# Assay: 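Synthetic lethal interactions between gene loss and doxorubicin in osteosarcoma cells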 (primary screen)
# Cell system: mouse osteosarcoma cells, early-passage culture from an engineered mouse model of fibroblastic bone tumour
# Knock-down reagent: siRNA pool against mouse genes, 40 nM
# Time to read-out: about 120 h (48 h before drug, then 72 h with drug)
# Conditions: doxorubicin 100 nM for 72 h, roughly 30-40% inhibitory dose
# Read-out: 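Viability read as ATP luminescence after 72 h of 100 nM doxorubicin or none, duplicate wells averaged, scaled to non-targeting siRNA, then expressed as robust z-scores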
# Direction: viability z-score with doxorubicin: higher = more viable cells under doxorubicin; viability z-score without drug: higher = more viable cells with knock-down alone; z-score of drug to no-drug ratio: higher = less drug sensitisation by knock-down
# Call rule: 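Called active if knock-down leaves viability unchanged without drug (z within -2 to 2) but lowers it with doxorubicin (z at or under -2)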
# The whole screen tested about 17,000 reagents; below is an unselected part. Of all reagents, 788 (4.7%) are marked active. 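Calls rest on z-score classes alone; an extra cut-off of viability at most 70% of control was not applied to them.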 Further read-outs or replicates are left out here.
The opening 4 entries, to show the layout:
combined z-score class,viability z-score with doxorubicin,viability z-score without drug,z-score of drug to no-drug ratio,outcome,Target gene
low cell count without drug only,-1.57,-2.19,0,inactive,Nrarp (GeneID 67122)
no change with or without drug,0.45,0.84,0,inactive,Zmym6 (GeneID 100177)
no change with or without drug,-0.45,0.17,-0.45,inactive,Dmap1 (GeneID 66233)
low cell count with doxorubicin only,-2.59,-1.52,-1.69,active,Shisa5 (GeneID 66940)

Results, from the start:
combined z-score class,viability z-score with doxorubicin,viability z-score without drug,z-score of drug to no-drug ratio,outcome,Target gene
low cell count without drug only,-1.57,-2.19,0,inactive,Nrarp (GeneID 67122)
no change with or without drug,0.45,0.84,0,inactive,Zmym6 (GeneID 100177)
no change with or without drug,-0.45,0.17,-0.45,inactive,Dmap1 (GeneID 66233)
low cell count with doxorubicin only,-2.59,-1.52,-1.69,active,Shisa5 (GeneID 66940)
no change with or without drug,0,-0.17,0.22,inactive,Ccl25 (GeneID 20300)
no change with or without drug,-1.01,-0.17,-0.9,inactive,Mtdh (GeneID 67154)
no change with or without drug,0.9,-0.34,1.35,inactive,Sprr2d (GeneID 20758)
no change with or without drug,-1.12,0.34,-1.24,inactive,Sema3d (GeneID 108151)
no change with or without drug,-0.22,-0.67,0.34,inactive,Ass1 (GeneID 11898)
no change with or without drug,-0.67,-1.18,0.22,inactive,Nedd1 (GeneID 17997)
low cell count with and without drug,-6.07,-5.9,-3.48,inactive,Napa (GeneID 108124)
no change with or without drug,-0.9,1.01,-1.46,inactive,Clk3 (GeneID 102414)
no change with or without drug,-0.11,0.51,-0.34,inactive,Ano2 (GeneID 243634)
no change with or without drug,0.45,0.51,0.22,inactive,Reps2 (GeneID 194590)
no change with or without drug,0.11,0.17,0.11,inactive,Gml2 (GeneID 15202)
no change with or without drug,-0.45,0.17,-0.45,inactive,S100a7a (GeneID 381493)
no change with or without drug,-0.9,-0.84,-0.22,inactive,Or8b55 (GeneID 258777)
no change with or without drug,-0.22,-1.01,0.56,inactive,Ifna9 (GeneID 15972)
no change with or without drug,0,1.52,-0.9,inactive,Or8b101 (GeneID 258416)
no change with or without drug,-0.45,-0.17,-0.22,inactive,Agrp (GeneID 11604)
no change with or without drug,0.45,0.84,0,inactive,Ap2a2 (GeneID 11772)
no change with or without drug,1.46,1.35,0.67,inactive,Klra7 (GeneID 16638)
no change with or without drug,-0.22,0.34,-0.34,inactive,Rad18 (GeneID 58186)
no change with or without drug,1.35,0.51,1.12,inactive,Pcca (GeneID 110821)
no change with or without drug,0.22,1.85,-0.79,inactive,Zfp474 (GeneID 66758)
no change with or without drug,-1.8,-0.51,-1.46,inactive,Tbp (GeneID 21374)
high cell count without drug only,0.22,3.2,-1.57,inactive,Cela2a (GeneID 13706)
no change with or without drug,0.67,0.34,0.56,inactive,Asb12 (GeneID 70392)
no change with or without drug,0,-0.51,0.45,inactive,Adamts3 (GeneID 330119)
no change with or without drug,0.11,-0.84,0.9,inactive,Dusp8 (GeneID 18218)
no change with or without drug,0.45,-0.51,1.01,inactive,Paqr5 (GeneID 74090)
no change with or without drug,-1.12,0.34,-1.24,inactive,Ska3 (GeneID 219114)
no change with or without drug,0.34,0.51,0.11,inactive,Or5ac21 (GeneID 258479)
no change with or without drug,-1.35,-0.17,-1.24,inactive,Or8b12b (GeneID 258744)
no change with or without drug,-0.79,0.84,-1.24,inactive,Ppp2r5e (GeneID 26932)
no change with or without drug,0.22,1.01,-0.34,inactive,Usp10 (GeneID 22224)
no change with or without drug,0,0.51,-0.22,inactive,Fbxo36 (GeneID 66153)
no change with or without drug,0.67,0.84,0.22,inactive,Zfp235 (GeneID 56525)
no change with or without drug,0.45,-1.01,1.35,inactive,Nudt3 (GeneID 56409)
no change with or without drug,-0.22,0.34,-0.34,inactive,Derl1 (GeneID 67819)
no change with or without drug,-1.8,0.17,-1.91,inactive,Abcc10 (GeneID 224814)
no change with or without drug,-0.34,-0.17,-0.11,inactive,Pnoc (GeneID 18155)
no change with or without drug,1.24,-1.35,2.59,inactive,Spag17os (GeneID 320613)
no change with or without drug,0,-0.51,0.45,inactive,Kdelr2 (GeneID 66913)
no change with or without drug,0.45,-0.84,1.24,inactive,Lrp4 (GeneID 228357)
no change with or without drug,-0.22,0.34,-0.34,inactive,Zfp119a (GeneID 104349)
high cell count without drug only,-1.12,2.19,-2.25,inactive,Stim1 (GeneID 20866)
no change with or without drug,0.22,-0.51,0.67,inactive,Borcs5 (GeneID 67774)
high cell count without drug only,1.12,2.19,-0.22,inactive,Prima1 (GeneID 170952)
no change with or without drug,-0.67,-0.34,-0.34,inactive,Rffl (GeneID 67338)
